From paper PMC2075366
These are yes or no findings as the source states them, for the method shown. Binding seen in cells or lysates may run through a third protein. These calls come from enrichment with a bait or labelling near it, and not all partners need be listed. No binding means not detected with the bait.

The chains behind the UniProt entries cited, without tags or fusion partners.
UniProt Q6R327: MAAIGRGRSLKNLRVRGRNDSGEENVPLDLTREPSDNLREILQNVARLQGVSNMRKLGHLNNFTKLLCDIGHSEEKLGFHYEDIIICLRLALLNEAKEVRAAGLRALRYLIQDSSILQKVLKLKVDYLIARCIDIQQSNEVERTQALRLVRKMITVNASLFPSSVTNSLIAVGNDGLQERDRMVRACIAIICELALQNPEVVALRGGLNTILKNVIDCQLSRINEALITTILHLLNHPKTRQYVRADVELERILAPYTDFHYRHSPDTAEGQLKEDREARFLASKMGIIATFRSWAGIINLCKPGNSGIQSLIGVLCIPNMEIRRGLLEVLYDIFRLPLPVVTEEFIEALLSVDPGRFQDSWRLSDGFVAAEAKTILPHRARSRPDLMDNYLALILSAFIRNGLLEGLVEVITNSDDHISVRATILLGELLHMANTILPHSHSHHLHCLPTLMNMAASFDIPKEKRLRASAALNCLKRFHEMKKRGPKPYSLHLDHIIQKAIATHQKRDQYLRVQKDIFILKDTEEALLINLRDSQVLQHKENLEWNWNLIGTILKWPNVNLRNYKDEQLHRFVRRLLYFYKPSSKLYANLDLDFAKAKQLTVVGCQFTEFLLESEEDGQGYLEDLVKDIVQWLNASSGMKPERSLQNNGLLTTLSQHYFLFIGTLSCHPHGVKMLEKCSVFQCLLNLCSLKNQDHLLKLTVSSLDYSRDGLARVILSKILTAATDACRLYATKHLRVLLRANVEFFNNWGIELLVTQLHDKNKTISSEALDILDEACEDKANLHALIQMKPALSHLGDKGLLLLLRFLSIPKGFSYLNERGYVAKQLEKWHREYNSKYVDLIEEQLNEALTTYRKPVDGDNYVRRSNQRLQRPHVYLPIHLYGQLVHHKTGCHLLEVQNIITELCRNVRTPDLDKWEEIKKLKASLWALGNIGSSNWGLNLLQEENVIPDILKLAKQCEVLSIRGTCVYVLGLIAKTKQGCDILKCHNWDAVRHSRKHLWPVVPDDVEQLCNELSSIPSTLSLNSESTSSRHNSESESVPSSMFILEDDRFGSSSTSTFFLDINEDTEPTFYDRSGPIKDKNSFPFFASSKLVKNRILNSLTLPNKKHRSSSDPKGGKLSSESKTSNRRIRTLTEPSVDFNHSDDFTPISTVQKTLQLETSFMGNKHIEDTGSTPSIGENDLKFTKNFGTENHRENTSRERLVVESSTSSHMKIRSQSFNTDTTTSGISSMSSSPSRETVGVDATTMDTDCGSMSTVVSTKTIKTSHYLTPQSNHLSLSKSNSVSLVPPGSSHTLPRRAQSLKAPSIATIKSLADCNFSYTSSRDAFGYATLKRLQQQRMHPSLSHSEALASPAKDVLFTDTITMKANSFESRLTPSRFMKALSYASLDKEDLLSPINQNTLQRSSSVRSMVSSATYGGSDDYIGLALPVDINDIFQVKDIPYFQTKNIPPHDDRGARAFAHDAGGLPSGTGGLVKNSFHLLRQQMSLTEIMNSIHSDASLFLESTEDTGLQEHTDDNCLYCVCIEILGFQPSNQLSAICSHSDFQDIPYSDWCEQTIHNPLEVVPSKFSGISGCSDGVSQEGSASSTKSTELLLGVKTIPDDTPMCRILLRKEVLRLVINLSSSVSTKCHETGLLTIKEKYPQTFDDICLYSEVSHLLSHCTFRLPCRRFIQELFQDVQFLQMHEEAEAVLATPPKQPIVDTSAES
UniProt Q6MZQ0: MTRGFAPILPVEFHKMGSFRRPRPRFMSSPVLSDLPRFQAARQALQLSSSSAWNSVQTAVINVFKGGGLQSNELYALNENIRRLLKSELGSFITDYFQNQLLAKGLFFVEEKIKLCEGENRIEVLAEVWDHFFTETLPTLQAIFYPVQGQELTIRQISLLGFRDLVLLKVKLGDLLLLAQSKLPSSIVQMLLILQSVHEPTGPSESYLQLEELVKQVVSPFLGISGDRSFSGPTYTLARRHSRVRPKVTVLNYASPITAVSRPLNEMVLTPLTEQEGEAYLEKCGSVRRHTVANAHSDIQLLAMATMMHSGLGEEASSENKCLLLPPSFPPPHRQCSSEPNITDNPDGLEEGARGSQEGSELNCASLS

Target: Rictor (human (endogenous in HeLa and HEK293)) (UniProt Q6R327)
Experiment: affinity purification with mass spectrometry; large scale IPs of endogenous mTOR, Rictor or Raptor from HeLa cells with antibodies on Protein G Dynabeads, against mock IPs; digestion with trypsin on the beads, 2D LC-MS/MS

| binding | Substance |
| --- | --- |
| no binding | Proline-rich Akt substrate (PRAS40) (from UniProt Q96B36 1-256) |
| binds | PRR5-Like protein (PRR5L) (from UniProt Q6MZQ0 1-368) |
